The test deals with BDF1 mice, s.c. Lewis lung carcinoma, T/C %. The test is described as follows: NCI In Vivo Anticancer Drug Screen. Data for tumor model Lewis Lung Carcinoma (subcutaneous) in B6D2F1 (BDF1) mice. The following applies: vehicle: saline. As to the method: The antitumor activity of compounds was measured in mice bearing transplantable tumors. Survival or tumor size were measured and the results are expressed as the measurement made in the treated group (T) divided by the measurement made in the vehicle treated control group (C). The tumor model used in this assay is Lewis Lung Carcinoma (subcutaneous) in B6D2F1 (BDF1) mice

1 compound from PubChem BioAssay AID270 (DTP/NCI, 2004) can be followed below.

The list is a part of this screen's results and no random one: it covers a few groups of compounds. Not every dose and run of a compound is shown. T/C: endpoint of the treated group in % of that of the vehicle group. Some T/C values are marked as having no survivor count here; that says nothing about deaths at the dose. Schedule codes are those of the source, taken here to give the interval after Q, in days (D) or hours (H), and the number of doses after X. Some entries hold several experiments; the results are listed from low to high. For survival time, the PubChem record calls one and a half times the control and up active, and a quarter to a half above the control has no call in these data; cut-offs in other NCI protocols can differ.

As for `CN(CCCl)CCCl`, the T/C reads like this: (T/C endpoint: mean tumor weight, dose: 0.15 mg/kg/injection, schedule: Q01DX011 (ip), evaluation day not shown, higher T/C = larger tumour) 103 % of control [survivor count not shown]; (T/C endpoint: mean tumor weight, dose: 0.25 mg/kg/injection, schedule: Q01DX011 (ip), evaluation day not shown, higher T/C = larger tumour) 70 % of control [survivor count not shown]; (T/C endpoint: mean tumor weight, dose: 0.3 mg/kg/injection, schedule: Q01DX011 (ip), evaluation day not shown, higher T/C = larger tumour) 65 % of control [survivor count not shown]; (T/C endpoint: mean tumor weight, dose: 0.45 mg/kg/injection, schedule: Q01DX011 (ip), evaluation day not shown, higher T/C = larger tumour) 90 % of control [survivor count not shown]; (T/C endpoint: mean tumor weight, dose: 0.5 mg/kg/injection, schedule: Q01DX011 (ip), evaluation day not shown, higher T/C = larger tumour) 47 [survivor count not shown] and 55 % of control [survivor count not shown]; (T/C endpoint: median survival time, dose: 0.1 mg/kg/injection, schedule: Q01DX009 (ip), higher T/C = longer survival) 104 [survivor count not shown] and 123 % of control [survivor count not shown]. The T/C reads like this: (T/C endpoint: median survival time, dose: 0.19 mg/kg/injection, schedule: Q01DX009 (ip), higher T/C = longer survival) 110 [survivor count not shown] and 114 % of control [survivor count not shown]; (T/C endpoint: median survival time, dose: 0.19 mg/kg/injection, schedule: Q04DX003 (ip), higher T/C = longer survival) 135 % of control [survivor count not shown]; (T/C endpoint: median survival time, dose: 0.38 mg/kg/injection, schedule: Q01DX001 (ip), higher T/C = longer survival) 92 % of control [survivor count not shown]; (T/C endpoint: median survival time, dose: 0.38 mg/kg/injection, schedule: Q01DX009 (ip), higher T/C = longer survival) 131 [survivor count not shown] and 133 % of control [survivor count not shown]; (T/C endpoint: median survival time, dose: 0.38 mg/kg/injection, schedule: Q04DX003 (ip), higher T/C = longer survival) 90 % of control [survivor count not shown]; (T/C endpoint: median survival time, dose: 0.75 mg/kg/injection, schedule: Q01DX001 (ip), higher T/C = longer survival) 115 % of control [survivor count not shown]. Also, the T/C (T/C endpoint: median survival time, dose: 0.75 mg/kg/injection, schedule: Q01DX009 (ip), higher T/C = longer survival) is 109 [survivor count not shown] and 135 % of control [survivor count not shown]; the T/C (T/C endpoint: median survival time, dose: 0.75 mg/kg/injection, schedule: Q04DX003 (ip), higher T/C = longer survival) was 106 % of control [survivor count not shown]; the T/C (T/C endpoint: median survival time, dose: 1.5 mg/kg/injection, schedule: Q01DX001 (ip), higher T/C = longer survival) was 116 % of control [survivor count not shown]; the T/C (T/C endpoint: median survival time, dose: 1.5 mg/kg/injection, schedule: Q04DX003 (ip), higher T/C = longer survival) was 107 % of control [survivor count not shown]; the T/C (T/C endpoint: median survival time, dose: 3.0 mg/kg/injection, schedule: Q01DX001 (ip), higher T/C = longer survival) is 94 % of control [survivor count not shown].
